Like-named read-outs stand apart in the source and are kept apart here.
System: SARS-CoV-2
Assay: microbe, parasite or virus in culture
Type: cell-based

Structure (SMILES) | Inhibition of SARS-CoV-2-induced cytopathic effect, result in words (Vero E6) | IC50 (Severe acute respiratory syndrome coronavirus 2, Vero C1008, 72 h, read-out: IC50 (Mean +/- SD)) | IC50 (Severe acute respiratory syndrome coronavirus 2, Vero C1008, Vero E6, one representative experiment with two replicates, when combined, each drug at the same concentration, read-out: IC50 value of the particular graph)
CCS(=O)(=O)N1CC(CC#N)(n2cc(-c3ncnc4[nH]ccc34)cn2)C1 [Baricitinib] | failed to protected Vero E6 cells from SARS-CoV-2 induced cytopathic effect |  | 
CC(C)OC(=O)C(C)(C)Oc1ccc(C(=O)c2ccc(Cl)cc2)cc1 [Fenofibrate] | inhibited the cytopathic effect exerted by SARS-CoV-2 on Vero E6 at 20 µM | 19.8 µM | 20 µM

Reference: article PMC8033486 (Frontiers in Pharmacology, 2021)
